Data from the supplement of paper PMC4604168 (melanoma cell lines).
The list shows a part of the results. Repeats are few or missing, and single values can be far off.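 The apoptosis fraction was the count of cleaved-PARP antibody-stained nuclei relative to all DNA-stained nuclei, imaged in 1,536-well plates. Screening doses were set so most cells survived, and baseline and induced cleaved-PARP levels vary greatly across cell lines.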

What follows are molecules tested on SkMel2 (assay: cleaved PARP positive nuclei fraction relative to DMSO control; melanoma cells; higher = more apoptosis). Conditions: library dose: low library concentration; 72 h.

SMILES | cleaved PARP positive nuclei fraction
Cn1cnc2c(F)c(Nc3ccc(Br)cc3Cl)c(C(=O)NOCCO)cc21 [selumetinib] + Cn1nnc2c(C(N)=O)ncn2c1=O [temozolomide] (first compound 0.015 µM, partner dose 2 µM) | 79.3%
C[C@]1(O)C[C@@H](c2nc(-c3ccc4ccc(-c5ccccc5)nc4c3)c3c(N)nccn32)C1 + CS(=O)(=O)c1ccc(C(=O)Nc2ccc(Cl)c(-c3ccccn3)c2)c(Cl)c1 [vismodegib] (first compound 0.4 µM, partner dose 1 µM) | 63.6%
C[C@]1(O)C[C@@H](c2nc(-c3ccc4ccc(-c5ccccc5)nc4c3)c3c(N)nccn32)C1 + Cc1cc(Nc2cc(N3CCN(C)CC3)nc(/C=C/c3ccccc3)n2)n[nH]1 [ENMD2076] (first compound 0.4 µM, partner dose 0.04 µM) | 132%
Cn1cnc2c(F)c(Nc3ccc(Br)cc3Cl)c(C(=O)NOCCO)cc21 [selumetinib] + O=C(O)[C@@H]1[O][Sb](=[O])([O][Sb]2(=[O])[O][C@H]([C@H](O)CO)[C@H](O)[C@H](C(=O)O)[O]2)[O][C@H]([C@H](O)CO)[C@@H]1O [stibogluconate] (first compound 0.015 µM, partner dose 2 µM) | 265%
Cn1cnc2c(F)c(Nc3ccc(Br)cc3Cl)c(C(=O)NOCCO)cc21 [selumetinib] + CCN(CC)CCNC(=O)c1c(C)[nH]c(/C=C2\C(=O)Nc3ccc(F)cc32)c1C [sunitinib] (first compound 0.015 µM, partner dose 0.4 µM) | 112%
Cn1sc(=O)n(Cc2ccccc2)c1=O + CN(c1ncccc1CNc1nc(Nc2ccc3c(c2)CC(=O)N3)ncc1C(F)(F)F)S(C)(=O)=O [PF562271] (first compound 0.4 µM, partner dose 0.08 µM) | 32%
CC1(C)CCC(c2ccc(Cl)cc2)=C(CN2CCN(c3ccc(C(=O)NS(=O)(=O)c4ccc(N[C@H](CCN5CCOCC5)CSc5ccccc5)c(S(=O)(=O)C(F)(F)F)c4)cc3)CC2)C1 + OCc1c[nH]c2ccccc12 [Indole-3-carbinol] (first compound 0.4 µM, partner dose 0.8 µM) | 113%
CC(=O)O[C@@]12CO[C@@H]1C[C@H](O)[C@@]1(C)C(=O)[C@H](O)C3=C(C)[C@@H](OC(=O)[C@H](O)[C@@H](NC(=O)OC(C)(C)C)c4ccccc4)C[C@@](O)([C@@H](OC(=O)c4ccccc4)[C@H]21)C3(C)C [Docetaxel] + NC1(c2ccc(-c3nc4ccn5c(=O)[nH]nc5c4cc3-c3ccccc3)cc2)CCC1 [MK2206] (first compound 0.0001 µM, partner dose 0.4 µM) | 631%
C[C@]1(O)C[C@@H](c2nc(-c3ccc4ccc(-c5ccccc5)nc4c3)c3c(N)nccn32)C1 + Nc1cccc2c1CN(C1CCC(=O)NC1=O)C2=O [lenalidomide] (first compound 0.4 µM, partner dose 1 µM) | 118%
C[C@@H](N)c1ccc(C(=O)Nc2ccnc3[nH]ccc23)cc1 + C=CCNC1=C2C[C@@H](C)C[C@H](OC)[C@H](O)[C@@H](C)/C=C(\C)[C@H](OC(N)=O)[C@@H](OC)/C=C\C=C(/C)C(=O)NC(=CC1=O)C2=O [Tanespimycin] (first compound 0.4 µM, partner dose 0.002 µM) | 101%

Each molecule was assayed on SkMel30 in the same assay as above. Conditions: library dose: low library concentration; 72 h.

SMILES | cleaved PARP positive nuclei fraction
NC(=O)c1ccc(N(C(N)=O)c2c(F)cccc2F)nc1-c1ccc(F)cc1F + Nc1nc(F)nc2c1ncn2[C@@H]1O[C@H](CO)[C@@H](O)[C@@H]1O [fludarabine] (first compound 0.4 µM, partner dose 0.2 µM) | 1770%
Cn1sc(=O)n(Cc2ccccc2)c1=O + CNC(=O)c1cc(Oc2ccc(NC(=O)Nc3ccc(Cl)c(C(F)(F)F)c3)cc2)ccn1 [sorafenib] (first compound 0.4 µM, partner dose 0.4 µM) | 34.8%
COc1ccc(C2=N[C@@H](c3ccc(Cl)cc3)[C@@H](c3ccc(Cl)cc3)N2C(=O)N2CCNC(=O)C2)c(OC(C)C)c1 [Nutlin-3] + CN(c1ncccc1CNc1nc(Nc2ccc3c(c2)CC(=O)N3)ncc1C(F)(F)F)S(C)(=O)=O [PF562271] (first compound 0.1 µM, partner dose 0.08 µM) | 51.2%
CN(c1ncccc1CNc1nc(Nc2ccc3c(c2)CC(=O)N3)ncc1C(F)(F)F)S(C)(=O)=O + Cn1c(=O)n(-c2ccc(C(C)(C)C#N)cc2)c2c3cc(-c4cnc5ccccc5c4)ccc3ncc21 [NVP-BEZ235] (first compound 0.08 µM, partner dose 0.004 µM) | 92.4%
Cn1sc(=O)n(Cc2ccccc2)c1=O + CCN(CC)CCNC(=O)c1c(C)[nH]c(/C=C2\C(=O)Nc3ccc(F)cc32)c1C [sunitinib] (first compound 0.4 µM, partner dose 0.4 µM) | 89.1%
CC1(C)CCC(c2ccc(Cl)cc2)=C(CN2CCN(c3ccc(C(=O)NS(=O)(=O)c4ccc(N[C@H](CCN5CCOCC5)CSc5ccccc5)c(S(=O)(=O)C(F)(F)F)c4)cc3)CC2)C1 + Cc1nc(Nc2ncc(C(=O)Nc3c(C)cccc3Cl)s2)cc(N2CCN(CCO)CC2)n1 [dasatanib] (first compound 0.4 µM, partner dose 0.004 µM) | 188%
Cn1cnc2c(F)c(Nc3ccc(Br)cc3Cl)c(C(=O)NOCCO)cc21 [selumetinib] + Cn1c(Nc2ccc(C(F)(F)F)cc2)nc2cc(Oc3ccnc(-c4ncc(C(F)(F)F)[nH]4)c3)ccc21 [CHIR265] (first compound 0.015 µM, partner dose 0.08 µM) | 182%
C[C@@H](N)c1ccc(C(=O)Nc2ccnc3[nH]ccc23)cc1 + Nc1ncn([C@H]2C[C@H](O)[C@@H](CO)O2)c(=O)n1 [decitabine] (first compound 0.4 µM, partner dose 0.1 µM) | 154%
CC1(C)CCC(c2ccc(Cl)cc2)=C(CN2CCN(c3ccc(C(=O)NS(=O)(=O)c4ccc(N[C@H](CCN5CCOCC5)CSc5ccccc5)c(S(=O)(=O)C(F)(F)F)c4)cc3)CC2)C1 + COCC[n+]1c2c(n(Cc3cnccn3)c1C)C(=O)c1ccccc1C2=O [YM155] (first compound 0.4 µM, partner dose 0.0004 µM) | 146%
Cn1sc(=O)n(Cc2ccccc2)c1=O + CS(=O)(=O)CCNCc1ccc(-c2ccc3ncnc(Nc4ccc(OCc5cccc(F)c5)c(Cl)c4)c3c2)o1 [lapatinib] (first compound 0.4 µM, partner dose 0.8 µM) | 57%
Cn1cnc2c(F)c(Nc3ccc(Br)cc3Cl)c(C(=O)NOCCO)cc21 [selumetinib] + Nc1nc(F)nc2c1ncn2[C@@H]1O[C@H](CO)[C@@H](O)[C@@H]1O [fludarabine] (first compound 0.015 µM, partner dose 0.2 µM) | 1350%
CS(=O)(=O)c1ccc(C(=O)Nc2ccc(Cl)c(-c3ccccn3)c2)c(Cl)c1 [vismodegib] + CC(C)C[C@H](NC(=O)[C@H](Cc1ccccc1)NC(=O)c1cnccn1)B(O)O [Bortezomib] (first compound 1 µM, partner dose 0.001 µM) | 99.2%
CC1(C)CCC(c2ccc(Cl)cc2)=C(CN2CCN(c3ccc(C(=O)NS(=O)(=O)c4ccc(N[C@H](CCN5CCOCC5)CSc5ccccc5)c(S(=O)(=O)C(F)(F)F)c4)cc3)CC2)C1 + C=C(c1ccc(C(=O)O)cc1)c1cc2c(cc1C)C(C)(C)CCC2(C)C [Bexarotene] (first compound 0.4 µM, partner dose 2 µM) | 112%
CS(=O)(=O)c1ccc(C(=O)Nc2ccc(Cl)c(-c3ccccn3)c2)c(Cl)c1 [vismodegib] + CC(=O)c1c(C)c2cnc(Nc3ccc(N4CCNCC4)cn3)nc2n(C2CCCC2)c1=O [palbociclib] (first compound 1 µM, partner dose 0.04 µM) | 96.8%
NC(=O)c1ccc(N(C(N)=O)c2c(F)cccc2F)nc1-c1ccc(F)cc1F + C#Cc1cccc(Nc2ncnc3cc(OCCOC)c(OCCOC)cc23)c1 [erlotinib] (first compound 0.4 µM, partner dose 0.8 µM) | 152%
CS(=O)(=O)c1ccc(C(=O)Nc2ccc(Cl)c(-c3ccccn3)c2)c(Cl)c1 [vismodegib] + Nc1nc(F)nc2c1ncn2[C@@H]1O[C@H](CO)[C@@H](O)[C@@H]1O [fludarabine] (first compound 1 µM, partner dose 0.2 µM) | 1140%
NC(=O)c1ccc(N(C(N)=O)c2c(F)cccc2F)nc1-c1ccc(F)cc1F + C=CCNC1=C2C[C@@H](C)C[C@H](OC)[C@H](O)[C@@H](C)/C=C(\C)[C@H](OC(N)=O)[C@@H](OC)/C=C\C=C(/C)C(=O)NC(=CC1=O)C2=O [Tanespimycin] (first compound 0.4 µM, partner dose 0.002 µM) | 92.6%
CC(=O)O[C@@]12CO[C@@H]1C[C@H](O)[C@@]1(C)C(=O)[C@H](O)C3=C(C)[C@@H](OC(=O)[C@H](O)[C@@H](NC(=O)OC(C)(C)C)c4ccccc4)C[C@@](O)([C@@H](OC(=O)c4ccccc4)[C@H]21)C3(C)C [Docetaxel] + C=C(c1ccc(C(=O)O)cc1)c1cc2c(cc1C)C(C)(C)CCC2(C)C [Bexarotene] (first compound 0.0001 µM, partner dose 2 µM) | 376%

2 entries from above, in CSV form:
SMILES,cleaved PARP positive nuclei fraction
"NC(=O)c1ccc(N(C(N)=O)c2c(F)cccc2F)nc1-c1ccc(F)cc1F + C#Cc1cccc(Nc2ncnc3cc(OCCOC)c(OCCOC)cc23)c1 [erlotinib] (first compound 0.4 µM, partner dose 0.8 µM)",152%
"CS(=O)(=O)c1ccc(C(=O)Nc2ccc(Cl)c(-c3ccccn3)c2)c(Cl)c1 [vismodegib] + Nc1nc(F)nc2c1ncn2[C@@H]1O[C@H](CO)[C@@H](O)[C@@H]1O [fludarabine] (first compound 1 µM, partner dose 0.2 µM)",1140%
